About 1,500 (0.58%) of roughly 260,000 compounds were called active. This list was built around the results that the source calls inconclusive (neither active nor inactive); the mix of calls is not that of the screen.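 Rule for the calls: active = inhibition above a set limit at one or more doses, reproduced on every date tested; inconclusive = results disagree between test dates, or hit never tested in dose response; inactive = the rest.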
Each molecule was assayed against Virion infectivity factor (Human immunodeficiency virus type 1 group M subtype B (isolate BH10)) + Virion infectivity factor (Human immunodeficiency virus type 1 group M subtype B (isolate BRU/LAI)) + Virion infectivity factor (Human immunodeficiency virus type 1 group M subtype B (isolate PCV12)) + Virion infectivity factor (Human immunodeficiency virus type 1 group M subtype B (isolate HXB2)) + DNA dC->dU-editing enzyme APOBEC-3G (Homo sapiens) (UniProt P69720+P69721+P69722+P69723+Q9HC16) (assay: inhibitors of Vif binding to APOBEC3G peptide, primary screen, biochemical, TR-FRET, GST-Vif 1-94, biotin-A3G peptide, dose response retest (AID 1117319;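 note: Vif residues 1-94 fused to GST binding biotinylated APOBEC3G peptide 110-148; 0% = full assay without inhibitor and 100% = GST in place of GST-Vif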)). Conditions: stronger effect = higher value.

The chains behind the UniProt entries cited, without tags or fusion partners. Where a name states a change or a piece, a line headed by the entry shows the natural chain unless it says otherwise.
UniProt P69720: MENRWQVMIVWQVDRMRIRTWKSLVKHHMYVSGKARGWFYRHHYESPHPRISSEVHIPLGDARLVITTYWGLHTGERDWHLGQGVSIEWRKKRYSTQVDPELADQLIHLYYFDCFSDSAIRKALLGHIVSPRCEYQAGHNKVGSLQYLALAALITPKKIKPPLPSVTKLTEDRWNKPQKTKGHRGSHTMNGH
UniProt P69721: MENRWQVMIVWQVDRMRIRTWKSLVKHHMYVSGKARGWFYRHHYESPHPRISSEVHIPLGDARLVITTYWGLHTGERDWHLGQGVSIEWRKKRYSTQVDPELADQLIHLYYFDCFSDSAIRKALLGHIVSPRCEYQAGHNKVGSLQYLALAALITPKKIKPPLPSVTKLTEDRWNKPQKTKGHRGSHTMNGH
UniProt P69722: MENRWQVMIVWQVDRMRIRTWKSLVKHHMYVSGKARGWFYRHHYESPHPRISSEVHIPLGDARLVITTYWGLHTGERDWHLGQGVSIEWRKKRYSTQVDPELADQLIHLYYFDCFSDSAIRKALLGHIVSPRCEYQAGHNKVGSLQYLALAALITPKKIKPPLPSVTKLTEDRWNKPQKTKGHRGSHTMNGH
UniProt P69723: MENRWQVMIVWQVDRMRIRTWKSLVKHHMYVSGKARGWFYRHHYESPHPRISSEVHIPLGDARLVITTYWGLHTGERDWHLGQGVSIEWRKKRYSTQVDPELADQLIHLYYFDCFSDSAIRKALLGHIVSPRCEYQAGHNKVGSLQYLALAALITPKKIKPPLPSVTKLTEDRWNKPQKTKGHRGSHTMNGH
UniProt Q9HC16: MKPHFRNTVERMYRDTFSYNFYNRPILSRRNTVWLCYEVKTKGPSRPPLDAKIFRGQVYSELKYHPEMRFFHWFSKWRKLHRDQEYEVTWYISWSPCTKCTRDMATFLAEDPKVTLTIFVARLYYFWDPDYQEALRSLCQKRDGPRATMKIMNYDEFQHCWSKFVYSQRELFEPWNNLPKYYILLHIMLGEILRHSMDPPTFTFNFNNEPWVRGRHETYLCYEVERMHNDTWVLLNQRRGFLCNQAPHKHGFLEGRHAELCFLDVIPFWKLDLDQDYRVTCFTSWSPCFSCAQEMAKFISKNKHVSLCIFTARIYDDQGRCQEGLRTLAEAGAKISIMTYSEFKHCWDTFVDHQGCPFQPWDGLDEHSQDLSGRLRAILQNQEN

SMILES | inhibition
Cc1ccc(C2C3CSCC=C3C(C#N)=C(N)C2(C#N)C#N)cc1 (configuration not stated) | inactive: 8.68%
O=c1cc(-c2ccc(O)cc2)oc2cc(O[C@@H]3O[C@H](CO)[C@@H](O)[C@H](O)[C@H]3O[C@@H]3OC[C@](O)(CO)[C@H]3O)cc(O)c12 | inactive: 6.15%
CC(C)NC(=O)COc1ccc(Cl)cc1Cl | inactive: -3.29%
CCOC(=O)c1ccccc1NC(=O)C(C)Oc1ccccc1 (configuration not stated) | inconclusive: 50.1%
O=[N+]([O-])c1ccc(OCC(O)CN(C2CCCCC2)C2CCCCC2)cc1 (configuration not stated) | inconclusive: 47.7%
O=C(Nc1ccc2nc(-c3ccco3)[nH]c2c1)c1ccco1 | inconclusive: 37.7%
Cc1ccc(C(=O)N/C(=C\c2ccc(C)o2)C(=O)O)cc1 | inconclusive: 43.6%
CCOC(=O)CSC1=NC(=O)CS1 | inconclusive: 48.7%
c1ccc(CCNc2ncnc3scc(C4COc5ccccc5O4)c23)cc1 (configuration not stated) | inconclusive: 50.5%
COC(=O)C1=C(C)NC(=O)/C1=C/c1ccc(CNS(=O)(=O)c2ccc(C)cc2)o1 | inconclusive: 61.4%
COCCCn1c(SCC(=O)N(C)C)nnc1-c1ccccc1 | inconclusive: 61.3%
Cc1ccc(C(C)(C)C)cc1S(=O)(=O)Nc1cccc(S(=O)(=O)NC2=NCCC2)c1 | inconclusive: 42.5%
CCC1CCCN1Cn1cnc2c([nH]c3ccccc32)c1=O (configuration not stated) | inconclusive: 44.5%
CCOc1ccccc1NC(=O)[C@@H](NC(=O)c1cccc(S(=O)(=O)N2CCOCC2)c1)C(C)C | inconclusive: 37.6%
Cc1nnc(SCC(=O)N2CC(=O)Nc3ccccc32)n1-c1ccccc1 | inconclusive: 41.8%
Cc1ccc(NC(=O)CN2C(=O)S/C(=C\c3cccn3-c3cccc(C(=O)O)c3)C2=O)cc1C | inactive: -0.87%
CCC(=O)OCc1c(C(F)(F)F)nn(C)c1Sc1ccc(Cl)cc1 | inconclusive: 1.33%
CC(C)CN(CC(C)C)C1=N/C(=C\c2ccco2)C(=O)N1c1ccccc1 | inconclusive: 36.7%
Cc1ccc(-n2nc(C)c3c2OC(N)=C(C#N)C3c2ccc(C)o2)cc1 (configuration not stated) | inconclusive: 33%

SMILES | inhibition
CN(C)c1ccc(C2C3=C(CCCC3=O)OC3=C2C(=O)CCC3)cc1 | inconclusive: 35.1%
Cc1cc(C)n(-c2nc3nonc3nc2Nc2cccc(C)c2C)n1 | inconclusive: 38.7%
Cc1nc2sc(C(=O)O)c(N)c2c2c1COC(C)(C)C2 | inconclusive: 36.7%
O=C(CCCSc1nc2ccccc2[nH]1)N1CCN(c2ccccc2)CC1 | inconclusive: 56.2%
CCn1c(CSc2nc3ccccc3s2)nnc1SCC(=O)NCC(=O)OC | inconclusive: 37.1%
O=c1[nH]c(NCc2ccco2)nnc1Cc1ccccc1Cl | inconclusive: 52.9%
CC1N=C2c3ccccc3N=C(SCc3cc(=O)n4cc(Cl)ccc4n3)N2C1=O (configuration not stated) | inconclusive: 44.1%
COc1cccc(C(C#N)N2CCOCC2)c1 (configuration not stated) | inactive: -0.56%
CC(=O)N1CCc2cc(Br)cc(S(=O)(=O)N3CCCCCC3)c21 | inconclusive: 57.7%
Cc1ccc(Cl)cc1N1CCN(C(=O)c2ccc(NS(=O)(=O)c3c(C)noc3C)cc2)CC1 | inconclusive: 49.5%
Cc1ccccc1CSCCNC(=O)c1ccc(Cl)c(S(=O)(=O)N2CCOCC2)c1 | inconclusive: 37.2%
Cc1cc(C(=O)NCc2ccc(Cl)cc2)n(-c2ccccc2)n1 | inconclusive: 50.5%
CC1(C)C2CCC1(C)C(OCCNCCOC(=O)Nc1ccccc1)C2 (configuration not stated) | inconclusive: 52.5%
COc1ccc(NC(=S)Nc2cccnc2)c(OC)c1 | inconclusive: 36.4%
CCC(NC(=O)Nc1ccc(O)cc1)(C(F)(F)F)C(F)(F)F | inconclusive: 82.2%
CCN(CC)C(=O)Nc1ccc(Br)cc1 | inconclusive: 59.7%
O=C(NCc1cccnc1)c1ccc(Cl)cc1[N+](=O)[O-] | inconclusive: 22.9%
CC(=O)NN1C(=O)/C(=C\c2ccccc2)SC1=S | inactive: 1.87%
CCn1c(SCC(=O)Nc2nc(C)cs2)nnc1C(NC(=O)c1ccccc1Cl)C(C)C (configuration not stated) | inconclusive: 45.9%

SMILES | inhibition
CCc1n[n+](CC(=O)c2ccccc2)c(N)s1 | inconclusive: 47.8%
COc1ccc(NC(C)C(=O)Nc2ccc(C#N)cc2)cc1Cl (configuration not stated) | inconclusive: 24.4%
Nc1ccc(S(=O)(=O)NC(=O)c2ccccc2)cc1 | inconclusive: 38.5%
O=C1/C(=C/c2ccccn2)SC(=S)N1c1cccc(O)c1 | inactive: 1.67%
COc1ccccc1NC(=O)Nc1ccc2c(c1)nc(C)n2C | inconclusive: 63.6%
O=c1[nH][nH]cc1C=NCc1cccc(C(F)(F)F)c1 | inconclusive: 43.1%
CC(=O)OC[C@H]1O[C@@H](O/N=C(\C)CCN2CCCCc3nc(C)c(C)cc32)[C@H](OC(C)=O)[C@@H](OC(C)=O)[C@@H]1OC(C)=O | inconclusive: 44.7%
CCS(=O)(=O)c1ccc2c(c1)N(S(=O)(=O)c1ccccc1)CC(C(=O)O)O2 (configuration not stated) | inconclusive: 48%
Cc1ccnc(NC(=S)NC(=O)/C=C/c2ccco2)c1 | inconclusive: 39.2%
Clc1c(-c2ccccc2)nnn1-c1ccccc1 | inactive: -12%
CC(C)NC(=O)c1cc2c(C(F)(F)F)nn(C)c2s1 | inconclusive: 51.6%
O=S(=O)(O)c1ccc(O)c2cc(Nc3ccccc3)ccc12 | inactive: -8.31%
CC(C)/C=N/Nc1nc2c(c(=O)n(C)c(=O)n2C)n1C | inconclusive: 33.2%
CCOC(=O)C(CCCCCOc1ccccc1[N+](=O)[O-])C(=O)OCC | inconclusive: 40.5%
COc1ccccc1NC(=O)c1nnn(Cc2ccccc2)c1NC(=O)C(F)(F)F | inactive: 0.14%
CCOC(=O)CC(NC(=O)c1ccco1)c1ccc(C)cc1 (configuration not stated) | inconclusive: 37.5%
Cn1c(=O)n(C)c2cc(NS(=O)(=O)c3ccc4c(c3)CCCC4)ccc21 | inconclusive: 48.9%
COc1cc2c(cc1OC)C(c1ccco1)CC(=O)N2 (configuration not stated) | inconclusive: 35.8%
Cc1ccc2c(c1)-c1c(cnn1CC(=O)Nc1ccccc1N1CCN(C)CC1)CO2 | inconclusive: -0.53%

— PubChem BioAssay AID1117319 (Southern Research Institute, 2015)
